# Record: PubChem BioAssay AID743454 (Peter MacCallum Cancer Centre, 2014)
# Assay: 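Genes whose loss kills vorinostat-resistant colon cancer cells under vorinostat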 (primary screen)
# Cell system: human HCT116-VR colon cancer cells, selected for vorinostat resistance
# Reagents: siRNA pool against human genes, 40 nM siRNA pool
# Timing: vorinostat for 24 h, read-out about 72 h after transfection
# Treatment: vorinostat at 2.5 µM final
# Measurement: 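Two measures, CellTiter-Fluor viability and luminescent caspase 3/7 activity, each as fold change against same-plate mock wells, mean of duplicates, then screen-wide robust z-score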
# Reading the numbers: viability robust z-score: higher = more viable cells than screen typical; caspase robust z-score: higher = more caspase 3/7 activity than screen typical
# Rule for the call: 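a knock-down is a hit when classed RV1 or RV2 for lowered viability, or CA1 or CA2 for caspase activation; those lethal without drug were dropped; hits were retested singly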
# The whole screen tested about 18,000 reagents; this is a part drawn at random. 450 of all reagents (2.5%) count as active. 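Single biological run; no consistent viability z cut-off exists, so the class columns, not z-scores, define the calls.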 Entries without a mark were called inactive.
Target gene,PubChem SID,viability hit class,caspase hit class,viability robust z-score,caspase robust z-score
ANKS1A (GeneID 23294),SID152155302,no change,no change,-1.82,2.52
WDR4 (GeneID 10785),SID152150236,no change,no change,0.31,0.24
CARMIL2 (GeneID 146206),SID152148147,no change,no change,0.86,2.86
NUP58 (GeneID 9818),SID135622626,RV1 (reduced viability) (active),no change,-2.98,2.34
DPM2 (GeneID 8818),SID135623352,no change,no change,-0.36,0.41
PSPH (GeneID 5723),SID134316203,no change,no change,-0.84,-0.4
ACTL10 (GeneID 170487),SID135625233,no change,no change,1.09,0.08
RETREG3 (GeneID 162427),SID134322312,no change,no change,-0.19,-0.66
FAM13C (GeneID 220965),SID135624564,no change,no change,0.29,0.34
TRPC1 (GeneID 7220),SID152155184,no change,no change,-1.64,0.64
UMOD (GeneID 7369),SID152151837,no change,no change,-0.75,0.04
CACNG6 (GeneID 59285),SID134321389,no change,no change,-1.7,-0.05
AK7 (GeneID 122481),SID152153423,no change,no change,-1.86,0.68
PIGN (GeneID 23556),SID152153592,no change,no change,0.45,-0.18
TWNK (GeneID 56652),SID152148179,no change,no change,0.72,-0.82
NSL1 (GeneID 25936),SID135623194,no change,no change,0.55,1.25
METTL16 (GeneID 79066),SID152155074,no change,no change,-0.82,-0.75
NETO2 (GeneID 81831),SID134321543,no change,no change,0.34,-0.64
GDPD4 (GeneID 220032),SID134323196,no change,no change,0.34,0.29
PLPP6 (GeneID 403313),SID152152840,no change,no change,0.23,3.23
WASF3 (GeneID 10810),SID152149162,no change,no change,2.06,0.1
TAF1B (GeneID 9014),SID134316437,no change,no change,-1.18,3.88
IFNA10 (GeneID 3446),SID134323427,no change,no change,0.69,0.8
DOCK6 (GeneID 57572),SID135625048,no change,no change,0.2,0.44
EIF3L (GeneID 51386),SID135624088,no change (active),CA1 (caspase activation),0.15,5.35
NRROS (GeneID 375387),SID135625028,no change,no change,-0.05,-0.49
SLC32A1 (GeneID 140679),SID152151202,no change,no change,0.32,1.62
ELOVL7 (GeneID 79993),SID152154601,no change,no change,1.2,0.98
LCE3A (GeneID 353142),SID134322847,no change,no change,-3.81,-0.38
ORC3 (GeneID 23595),SID56478627,no change,no change,0.22,-0.49
OR5H6 (GeneID 79295),SID134329923,no change,no change,1.32,-0.56
IFNL2 (GeneID 282616),SID134312913,no change,no change,1.61,0.04
FBN3 (GeneID 84467),SID152156407,no change,no change,-0.24,0.43
FMR1 (GeneID 2332),SID134323408,no change (active),CA2 (caspase activation),-2.43,5.15
LTN1 (GeneID 26046),SID134312093,no change,no change,-0.04,0.16
PRB3 (GeneID 5544),SID152151653,no change,no change,0.19,-0.44
TBX15 (GeneID 6913),SID152147924,no change,no change,0.24,3.18
GABRG2 (GeneID 2566),SID135621156,no change,no change,-0.72,0.31
BORCS5 (GeneID 118426),SID134322076,no change,no change,-0.58,-0.26
SPEF2 (GeneID 79925),SID152150685,no change,no change,1.44,-0.38
ITIH2 (GeneID 3698),SID135623787,no change,no change,0.16,-1.14
ABHD2 (GeneID 11057),SID152147750,no change,no change,-1.07,0.18
UPK1A (GeneID 11045),SID134316636,no change,no change,-0.06,-0.88
RPS24 (GeneID 6229),SID152149188,no change,no change,-4.08,-1.68
TST (GeneID 7263),SID134314754,no change,no change,0.25,-0.09
MRPL44 (GeneID 65080),SID134317108,no change,no change,0.48,-1.29
SIMC1 (GeneID 375484),SID152152287,no change,no change,1.07,-0.52
HS3ST3A1 (GeneID 9955),SID134313397,no change,no change,-0.68,-0.24
STK3 (GeneID 6788),SID152146922,no change,no change,-0.54,0.36
VSIG1 (GeneID 340547),SID152153461,no change,no change,0.85,0.05
SNCAIP (GeneID 9627),SID152147172,no change,no change,0.37,1.23
SLC26A5 (GeneID 375611),SID134329425,no change,no change,-0.75,-0.3
PCDHGC4 (GeneID 56098),SID135622496,no change,no change,0.93,-0.96
REPS2 (GeneID 9185),SID152155354,no change,no change,-0.95,-0.47
PRSS37 (GeneID 136242),SID152152160,no change,no change,1.12,4.48
PINK1 (GeneID 65018),SID152149500,no change,no change,-0.4,-0.46
OR8D4 (GeneID 338662),SID152147290,no change,no change,-0.96,2.51

5 neighbouring reagents already listed, for reference:
Target gene,PubChem SID,viability hit class,caspase hit class,viability robust z-score,caspase robust z-score
EIF3L (GeneID 51386),SID135624088,no change (active),CA1 (caspase activation),0.15,5.35
NRROS (GeneID 375387),SID135625028,no change,no change,-0.05,-0.49
SLC32A1 (GeneID 140679),SID152151202,no change,no change,0.32,1.62
ELOVL7 (GeneID 79993),SID152154601,no change,no change,1.2,0.98
LCE3A (GeneID 353142),SID134322847,no change,no change,-3.81,-0.38
